Reference: paper PMC5331220

Amino acid sequences for entries named in this document (tags omitted). A change or cut given only in a name is not applied to a line headed by its entry.
UniProt Q15286: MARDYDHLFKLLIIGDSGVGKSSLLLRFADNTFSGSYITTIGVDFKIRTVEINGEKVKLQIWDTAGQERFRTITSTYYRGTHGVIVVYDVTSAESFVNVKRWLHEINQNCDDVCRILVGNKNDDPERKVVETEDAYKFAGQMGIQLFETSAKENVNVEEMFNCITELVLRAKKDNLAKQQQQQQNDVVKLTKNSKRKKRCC
UniProt Q8TDZ2: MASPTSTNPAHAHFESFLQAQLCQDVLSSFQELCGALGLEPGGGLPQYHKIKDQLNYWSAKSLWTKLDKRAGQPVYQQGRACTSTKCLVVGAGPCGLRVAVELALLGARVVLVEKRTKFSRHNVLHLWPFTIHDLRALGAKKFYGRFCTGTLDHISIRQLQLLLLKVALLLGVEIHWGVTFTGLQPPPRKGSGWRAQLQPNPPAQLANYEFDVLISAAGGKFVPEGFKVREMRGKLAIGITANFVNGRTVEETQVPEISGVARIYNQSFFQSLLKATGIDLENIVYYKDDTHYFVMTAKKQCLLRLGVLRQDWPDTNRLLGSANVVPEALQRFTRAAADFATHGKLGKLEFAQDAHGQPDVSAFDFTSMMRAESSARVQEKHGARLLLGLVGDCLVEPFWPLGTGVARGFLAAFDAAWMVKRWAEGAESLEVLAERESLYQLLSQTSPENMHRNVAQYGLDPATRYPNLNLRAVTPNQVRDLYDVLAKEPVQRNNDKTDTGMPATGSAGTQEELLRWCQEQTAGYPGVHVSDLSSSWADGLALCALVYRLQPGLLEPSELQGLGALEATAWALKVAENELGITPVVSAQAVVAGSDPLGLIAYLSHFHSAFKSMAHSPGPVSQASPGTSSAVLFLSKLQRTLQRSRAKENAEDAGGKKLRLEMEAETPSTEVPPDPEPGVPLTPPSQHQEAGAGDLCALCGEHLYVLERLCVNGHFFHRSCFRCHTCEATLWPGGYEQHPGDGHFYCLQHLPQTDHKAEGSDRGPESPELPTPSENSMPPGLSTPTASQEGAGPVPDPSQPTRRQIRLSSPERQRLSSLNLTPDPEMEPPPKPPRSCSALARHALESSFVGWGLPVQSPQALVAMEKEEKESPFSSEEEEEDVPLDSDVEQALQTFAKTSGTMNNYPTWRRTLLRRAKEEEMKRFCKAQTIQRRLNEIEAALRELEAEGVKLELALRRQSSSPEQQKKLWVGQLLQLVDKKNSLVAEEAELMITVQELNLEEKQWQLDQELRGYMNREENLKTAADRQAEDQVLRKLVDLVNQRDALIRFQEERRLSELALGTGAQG

Molecular target: LexA-fused human Rab35^Q67L (GTP-locked mutant) (human) (UniProt Q15286)
Assay: two-hybrid; S. cerevisiae reporter strain L40 co-transformed with pGAD-MICAL1 and pLex-Rab35 constructs; growth on medium without histidine

In the case of “GAD-fused MICAL1^879–1067 mutant S1 (from UniProt Q8TDZ2) (domain or fragment)”, the binding is reported as “binds”.

“MICAL1 C-terminal tail E1001R (two-hybrid construct) (from UniProt Q8TDZ2) (domain or fragment)” was tested, and the binding was “binds”.

These are yes or no findings as the source states them, for the method shown. A result given as binding can be weak or reduced; the word gives no strength.
